The experiment has as its target T1, FLAG-tagged hTIN2 (human) (UniProt Q9BSI4).
T1 sequence: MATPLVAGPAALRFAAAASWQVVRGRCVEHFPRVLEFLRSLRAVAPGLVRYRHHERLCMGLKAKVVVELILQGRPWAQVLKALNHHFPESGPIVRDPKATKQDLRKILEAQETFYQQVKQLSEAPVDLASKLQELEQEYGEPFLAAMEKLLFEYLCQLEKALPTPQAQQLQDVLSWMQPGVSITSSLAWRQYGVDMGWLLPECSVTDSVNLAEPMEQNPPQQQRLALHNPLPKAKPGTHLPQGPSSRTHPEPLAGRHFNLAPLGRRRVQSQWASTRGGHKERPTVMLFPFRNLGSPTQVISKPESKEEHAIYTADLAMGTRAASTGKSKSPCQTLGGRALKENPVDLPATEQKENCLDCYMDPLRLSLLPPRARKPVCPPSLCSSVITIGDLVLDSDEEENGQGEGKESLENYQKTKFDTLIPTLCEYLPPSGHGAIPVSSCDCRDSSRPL
The experiment can be described thus: co-IP; 293T cells co-transfected, lysed after 48 h in NETN (20 mM Tris pH 8, 1 mM EDTA, 100 mM NaCl, 0.5% NP-40); extracts 1 hour at 4°C with anti-FLAG M2 agarose beads; western blot (anti-GST, anti-V5, anti-FLAG). A general note: A western blot detects proteins with antibodies after separation by electrophoresis.

Results are given in words; binding and its absence hold for the method and conditions named. Binding seen in cells or lysates may run through a third protein. Binding calls can cover weak binding; strength is not graded here. Sequences can lack the tags named with a protein.

For the substance V5-tagged zfTPP1 (zebrafish), the binding result was “binds weakly”.

Source of the values: publication PMC3032778.
